Data published in paper doi:10.1101/2022.01.20.477040.
These are yes or no findings as the source states them, for the method shown. In cells and extracts the contact can be indirect. Some binding calls cover weakened binding; strength is not graded here.

The chains behind the UniProt entries cited, without tags or fusion partners.
UniProt P84022: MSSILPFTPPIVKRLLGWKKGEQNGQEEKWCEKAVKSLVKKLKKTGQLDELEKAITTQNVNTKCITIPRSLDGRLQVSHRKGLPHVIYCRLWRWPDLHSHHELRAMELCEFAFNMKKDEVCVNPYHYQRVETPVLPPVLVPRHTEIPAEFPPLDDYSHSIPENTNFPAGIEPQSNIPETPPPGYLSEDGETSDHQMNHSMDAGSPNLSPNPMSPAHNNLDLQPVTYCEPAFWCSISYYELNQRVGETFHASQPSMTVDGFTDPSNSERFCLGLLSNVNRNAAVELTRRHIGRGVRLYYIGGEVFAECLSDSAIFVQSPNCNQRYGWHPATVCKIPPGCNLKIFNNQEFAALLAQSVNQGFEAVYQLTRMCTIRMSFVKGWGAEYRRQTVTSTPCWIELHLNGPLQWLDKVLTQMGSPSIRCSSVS
UniProt Q15365: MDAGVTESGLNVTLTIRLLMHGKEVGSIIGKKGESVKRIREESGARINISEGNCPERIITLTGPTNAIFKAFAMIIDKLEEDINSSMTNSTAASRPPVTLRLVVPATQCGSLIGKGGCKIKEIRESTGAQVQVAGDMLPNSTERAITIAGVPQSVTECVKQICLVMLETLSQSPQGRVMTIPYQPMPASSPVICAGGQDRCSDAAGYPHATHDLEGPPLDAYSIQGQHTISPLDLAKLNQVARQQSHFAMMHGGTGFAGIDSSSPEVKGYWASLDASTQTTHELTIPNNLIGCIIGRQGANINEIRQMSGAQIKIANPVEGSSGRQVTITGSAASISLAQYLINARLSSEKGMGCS
UniProt P60335: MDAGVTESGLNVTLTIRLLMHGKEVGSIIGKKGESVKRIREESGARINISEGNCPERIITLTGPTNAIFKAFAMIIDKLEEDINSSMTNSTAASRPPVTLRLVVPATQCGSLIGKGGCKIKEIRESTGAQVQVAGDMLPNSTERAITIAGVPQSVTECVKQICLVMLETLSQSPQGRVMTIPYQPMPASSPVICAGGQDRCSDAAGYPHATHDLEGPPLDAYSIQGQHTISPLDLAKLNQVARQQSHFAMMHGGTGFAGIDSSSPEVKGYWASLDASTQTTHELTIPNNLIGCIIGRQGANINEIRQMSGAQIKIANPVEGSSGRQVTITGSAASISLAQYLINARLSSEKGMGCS
UniProt Q8BUN5: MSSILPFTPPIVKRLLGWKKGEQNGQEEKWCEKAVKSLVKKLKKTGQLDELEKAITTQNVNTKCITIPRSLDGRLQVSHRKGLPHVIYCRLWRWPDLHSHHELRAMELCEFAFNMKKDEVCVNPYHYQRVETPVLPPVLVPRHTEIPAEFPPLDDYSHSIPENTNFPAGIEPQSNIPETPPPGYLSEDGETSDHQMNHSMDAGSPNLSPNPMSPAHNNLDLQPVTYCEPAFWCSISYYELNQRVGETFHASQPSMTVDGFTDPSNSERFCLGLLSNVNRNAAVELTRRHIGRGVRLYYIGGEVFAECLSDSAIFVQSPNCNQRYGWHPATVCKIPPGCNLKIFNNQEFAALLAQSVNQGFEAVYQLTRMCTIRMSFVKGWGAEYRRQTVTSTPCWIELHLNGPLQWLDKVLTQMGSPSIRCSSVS

Key:
[1] = target: Smad3 (human (endogenous in HeLa)) (UniProt P84022); test: co-IP
[2] = target: PCBP1 (poly-(rC)-binding protein 1) (human (endogenous in HeLa)) (UniProt Q15365); test: co-IP
[3] = target: PCBP1 (poly-(rC)-binding protein 1) (mouse (endogenous in primary MSN cultures)) (UniProt P60335); test: proximity ligation

PCBP1 (poly-(rC)-binding protein 1) (from UniProt Q15365 1-356)
binding [1]: binds

Smad3 (from UniProt P84022 1-425)
binding [2]: binds

Smad3 (from UniProt Q8BUN5 1-425)
binding [3]: binds
